{
  "source": "paper PMC4926252",
  "about": "(Scientific Reports, 2016)",
  "key": {"[1]": {"molecular_target": "T1, ligand binding domain of the chemoreceptor CtpL (CtpL-LBD) (P. aeruginosa) (UniProt Q9HUW6)", "T1 sequence": "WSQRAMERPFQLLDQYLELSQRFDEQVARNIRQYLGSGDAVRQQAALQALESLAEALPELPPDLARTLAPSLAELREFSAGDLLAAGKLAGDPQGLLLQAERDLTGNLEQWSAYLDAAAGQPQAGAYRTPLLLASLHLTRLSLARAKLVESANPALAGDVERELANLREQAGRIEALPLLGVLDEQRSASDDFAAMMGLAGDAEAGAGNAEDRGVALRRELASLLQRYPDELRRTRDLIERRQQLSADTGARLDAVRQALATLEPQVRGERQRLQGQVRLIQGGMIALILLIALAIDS", "test": "AUC; sedimentation velocity, 45,000 rpm, 6 °C, polybuffer; CtpL-LBD and PstS individually and as a mixture; c(s) method; both purified"}, "[2]": {"molecular_target": "PstS (PA5369), periplasmic phosphate-binding protein, recombinant (P. aeruginosa) (UniProt G3XDA8)", "test": "AUC; sedimentation velocity, 45,000 rpm, 6 °C, polybuffer; CtpL-LBD and PstS individually and as a mixture; c(s) method; both purified"}},
  "note": "Results are given in words; binding and its absence hold for the method and conditions named.",
  "data": [
    {"binder": "ligand binding domain of the chemoreceptor CtpL (CtpL-LBD) (domain or fragment, P. aeruginosa, UniProt Q9HUW6 27-324, looked up, Cloned into pET28b(+); Held on a HisTrap column as bait in the pull-down; The discussion gives 286 amino acids for CtpL-LBD, whereas 27-324 is 298 residues; also called PA4844; source: E. coli BL21 (DE3), purified (HisTrap) from the soluble fraction) WSQRAMERPFQLLDQYLELSQRFDEQVARNIRQYLGSGDAVRQQAALQALESLAEALPELPPDLARTLAPSLAELREFSAGDLLAAGKLAGDPQGLLLQAERDLTGNLEQWSAYLDAAAGQPQAGAYRTPLLLASLHLTRLSLARAKLVESANPALAGDVERELANLREQAGRIEALPLLGVLDEQRSASDDFAAMMGLAGDAEAGAGNAEDRGVALRRELASLLQRYPDELRRTRDLIERRQQLSADTGARLDAVRQALATLEPQVRGERQRLQGQVRLIQGGMIALILLIALAIDS", "values": [
      {"measurement": "binding", "setting": "[1]", "value": "no binding"}
    ]},
    {"binder": "PstS (PA5369), periplasmic phosphate-binding protein, recombinant (protein, UniProt G3XDA8 25-323) AIDPALPEYQKASGVSGNLSSVGSDTLANLMTMWAEEYKRLYPNVNIQIQAAGSSTAPPALTEGTANLGPMSRKMKDVELQAFEQKYGYKPTAVPVAVDALAIFVHKDNPIKGLTMQQVDAIFSATRLCGSKQDVKTWGDLGLTGDWAKKPVQLFGRNSVSGTYGYFKEEALCKGDFRPNVNEQPGSASVVQSVSQSLNGIGYSGIGYKTASVKTVALAKKEGAAFVEDNEQNALNGTYPLSRFLYVYVNKAPNKPLDPLEAQFLKLVLSKTGQQVVVKDGYIPLPAKVAEKAIKELGL", "values": [
      {"measurement": "binding", "setting": "[2]", "value": "no binding"}
    ]}
  ]
}
